{
  "source": "paper PMC12040169",
  "about": "(PLOS Biology, 2025)",
  "note": "The other results are listed elsewhere or left out.",
  "data": [
    {"tested_on": "T1, CTL2-GFP (C. trachomatis L2/434/Bu, GFP-expressing)", "T1 construct": "L2/434/Bu, GFP-expressing", "parameters": "species or system HeLa; Intracellular C. trachomatis growth in HeLa cells, bulk GFP fluorescence relative to DMSO", "conditions": "bulk GFP, single well; 28.5 h, 10 µM; inhibitor", "units": {"% of control remaining": "%"}, "values": [
      {"smiles": "CC1=C[C@@H](CNC(=O)c2ccccc2)[C@H](C(C)C)C[C@H]1CC(=O)O", "note": "[CBK289213]", "% of control remaining": 142.344},
      {"smiles": "CC(=O)c1ccc2c3c(cccc13)CC(N(C)C)C2", "note": "(stereo not shown) [CBK005691S]", "% of control remaining": 139.674},
      {"smiles": "O=C(Nc1cccc(CCc2ccncc2)c1)C1CC(=O)N(Cc2ccncc2)C1", "note": "(stereo not shown) [CBK286287]", "% of control remaining": 127.438},
      {"smiles": "COc1ccc(-n2c(=O)[nH]cc(C(=O)N3CCc4ccccc43)c2=O)cc1OC", "note": "[CBK287555]", "% of control remaining": 151.443},
      {"smiles": "CC1CCN(C(=O)CSc2ccc3nnc(-c4ccccc4)n3n2)CC1", "note": "[CBK287512]", "% of control remaining": 137.628},
      {"smiles": "O=C(CSCc1ccc(Cl)cc1Cl)Nc1ccc(O)cc1C(=O)O", "note": "[CBK275322]", "% of control remaining": 136.783},
      {"smiles": "CC(C)C(=O)N1CC2(CCN(CC3COc4ccccc4O3)CC2)c2ccccc21", "note": "(stereo not shown) [CBK143946]", "% of control remaining": 101.455},
      {"smiles": "O=C1CNC(=S)N1c1cccc(C(F)(F)F)c1", "note": "[CBK288398]", "% of control remaining": 132.86},
      {"smiles": "COCCNC(=O)c1cc2n(n1)C(C(F)(F)F)CC(c1cccs1)N2", "note": "(stereo not shown) [CBK307614]", "% of control remaining": 86.6717},
      {"smiles": "CCN(CC)C(=O)c1ccc(N)cc1C", "note": "[CBK022686C]", "% of control remaining": 141.19},
      {"smiles": "COc1ccccc1C1CCC(NCCCC(=O)c2ccc(F)cc2)CC1", "note": "(stereo not shown) [CBK015965C]", "% of control remaining": 168.98},
      {"smiles": "Cc1ccc(C(=O)NCc2ccc(-c3n[nH]cc3C(=O)N(C)c3ccccc3)cc2)cc1", "note": "[CBK285600]", "% of control remaining": 99.497},
      {"smiles": "Cc1cccc(N2C(=O)SC(N(CC(=O)O)c3cccc(C)c3)C2=O)c1", "note": "(stereo not shown) [CBK287095]", "% of control remaining": 106.114},
      {"smiles": "Cc1nn(C)cc1-c1cncn1CCN(C)C1CCCC1", "note": "[CBK281780]", "% of control remaining": 121.92},
      {"smiles": "CCn1nc2c(C)cc3ccc(OC)cc3n2c1=O", "note": "[CBK283796]", "% of control remaining": 146.474},
      {"smiles": "Cc1ccc(-c2nc3ccccc3[nH]2)cc1", "note": "[CBK085933]", "% of control remaining": 93.1666},
      {"smiles": "O=C(NCc1cccc2ccccc12)c1ccccc1-n1cccc1", "note": "[CBK149585]", "% of control remaining": 84.2412},
      {"smiles": "COc1ccc(CCc2nc(C)cc(CN(C)C)c2O)cc1OC", "note": "[CBK278320C]", "% of control remaining": 112.274},
      {"smiles": "COc1cccc2c(C(C(=O)O)N3CCN(c4ccc(C(F)(F)F)cn4)CC3)c[nH]c12", "note": "(stereo not shown) [CBK286857]", "% of control remaining": 147.152},
      {"smiles": "CN(CCN1CCCCC1)C(=O)CCc1cn(C)c2ccccc12", "note": "[CBK281906]", "% of control remaining": 118.346},
      {"smiles": "O=C(C1CCCC1)N1CC(n2nc(-c3ccccc3)ccc2=O)C1", "note": "[CBK284617]", "% of control remaining": 155.399},
      {"smiles": "COCCNc1nc(-c2ccc([N+](=O)[O-])cc2)nc2ccccc12", "note": "[CBK264819]", "% of control remaining": 101.685}
    ]}
  ]
}
